From publication PMC8750349
These are yes or no findings as the source states them, for the method shown. A result given as binding can be weak or reduced; the word gives no strength. Where a sequence is shown, tags or fusion partners need not be part of it.

Target: T1, RhoGDI2Δ20, GAL4 DNA binding domain fusion (human) (UniProt P52566)
T1 sequence: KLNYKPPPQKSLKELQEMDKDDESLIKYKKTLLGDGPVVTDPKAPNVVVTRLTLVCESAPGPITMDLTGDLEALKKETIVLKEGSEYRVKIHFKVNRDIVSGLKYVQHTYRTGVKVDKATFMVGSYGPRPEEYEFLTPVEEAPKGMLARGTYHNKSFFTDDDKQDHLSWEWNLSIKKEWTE
Assay: two-hybrid; yeast strain AH109; RhoGDI2(WT) or RhoGDI2Δ20 in pGBK7 (GAL4 BD), Rac1 or FLNA/Rod2 in pGADT7 (AD); growth on SD medium lacking Leu, Trp and His; screening and pairwise test

“Rod-2 domain of Filamin A (FLNA/Rod-2), activation domain fusion (human) (domain or fragment)” was tested. Which binding did it give?
Its binding is “binds”.
